Drawing on PMC11631586, this text covers binding for 1 molecule.

The target of this test is T1, β-catenin (mouse (endogenous in heart ventricular tissue)), Q02248.
T1 chain: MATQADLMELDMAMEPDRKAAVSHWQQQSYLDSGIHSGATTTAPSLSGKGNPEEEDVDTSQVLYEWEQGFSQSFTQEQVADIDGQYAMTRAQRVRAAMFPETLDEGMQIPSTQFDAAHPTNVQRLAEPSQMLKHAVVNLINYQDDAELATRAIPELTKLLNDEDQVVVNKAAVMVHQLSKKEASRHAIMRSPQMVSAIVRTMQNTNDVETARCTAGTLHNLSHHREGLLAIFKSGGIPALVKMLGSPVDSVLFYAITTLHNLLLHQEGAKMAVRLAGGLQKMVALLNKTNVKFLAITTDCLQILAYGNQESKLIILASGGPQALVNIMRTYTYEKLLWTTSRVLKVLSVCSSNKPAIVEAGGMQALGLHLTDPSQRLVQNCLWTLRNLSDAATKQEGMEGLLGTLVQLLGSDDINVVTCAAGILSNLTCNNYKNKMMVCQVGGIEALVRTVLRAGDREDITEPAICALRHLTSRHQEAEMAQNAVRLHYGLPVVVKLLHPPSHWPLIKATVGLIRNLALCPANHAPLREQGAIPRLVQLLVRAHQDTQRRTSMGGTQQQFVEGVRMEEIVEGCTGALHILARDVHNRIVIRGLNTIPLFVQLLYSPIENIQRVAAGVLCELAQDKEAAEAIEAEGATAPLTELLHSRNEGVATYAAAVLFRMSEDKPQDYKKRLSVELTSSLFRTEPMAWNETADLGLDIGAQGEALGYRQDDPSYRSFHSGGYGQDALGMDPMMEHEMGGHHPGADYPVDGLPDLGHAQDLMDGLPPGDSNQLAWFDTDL
As to the kind of experiment: co-IP; extracts of mouse ventricular tissue (Sham, Sham + EMPA, TAC + VE, TAC + EMPA) cleared with Protein A/G beads; incubated with anti-β-catenin or anti-TCF7L2 antibody at 4 °C overnight, Protein A/G beads 4 h, washed three times with lysis buffer; Western blot; input 10% of lysate. The note with it: remark: other sources report otherwise. On the technique in general: Immunoblotting shows a protein as a band on a membrane.

No constants are given. Whether binding was seen depends on the method and setting. Binding seen in cells or lysates may run through a third protein. Some entries that bind do so weakly or less than the wild type.

B1: TCF7L2, Q924A0 1-459 (protein)
chain: MPQLNGGGGDDLGANDELISFKDEGEQEEKNSENSSAERDLADVKSSLVNESETNQDSSSDSEAERRPPPRSESFRDKSRESLEEAAKRQDGGLFKGPPYPGYPFIMIPDLTSPYLPNGSLSPTARTYLQMKWPLLDVQAGSLQSRQTLKDARSPSPAHIVSNKVPVVQHPHHVHPLTPLITYSNEHFTPGNPPPHLPADVDPKTGIPRPPHPPDISPYYPLSPGTVGQIPHPLGWLVPQQGQPVYPITTGGFRHPYPTALTVNASMSRFPPHMVPPHHTLHTTGIPHPAIVTPTVKQESSQSDVGSLHSSKHQDSKKEEEKKKPHIKKPLNAFMLYMKEMRAKVVAECTLKESAAINQILGRRWHALSREEQAKYYELARKERQLHMQLYPGWSARDNYGKKKKRKRDKQPGETNEHSECFLNPCLSLPPITDLSAPKKCRARFGLDQQNNWCGPCSL
As to B1, the binding entry is given as “binds”.
